Measured values from the supplement of paper PMC8426693.
The other results are listed elsewhere or left out.

Experiments:
Experiment in all cases: NMR binding call after quantification (hit when 2 of 3 NMR criteria are met) (binary (1 = binding, 0 = not binding)); higher = binding
Details in all cases: RNA concentration 10 µM; fragment concentration 200 µM; 293 K
SARS-CoV-2 5'-UTR RNA = test system: SARS-CoV-2 5'-UTR RNA
SARS-CoV-2 5_SL1 RNA = test system: SARS-CoV-2 5_SL1 RNA
SARS-CoV-2 5_SL1234 RNA = test system: SARS-CoV-2 5_SL1234 RNA
SARS-CoV-2 5_SL2+3 RNA = test system: SARS-CoV-2 5_SL2+3 RNA
SARS-CoV-2 5_SL4 RNA = test system: SARS-CoV-2 5_SL4 RNA
SARS-CoV-2 5_SL5 RNA = test system: SARS-CoV-2 5_SL5 RNA
SARS-CoV-2 5_SL5a RNA = test system: SARS-CoV-2 5_SL5a RNA
SARS-CoV-2 5_SL5b+c RNA = test system: SARS-CoV-2 5_SL5b+c RNA
SARS-CoV-2 5_SL5stem RNA = test system: SARS-CoV-2 5_SL5stem RNA
SARS-CoV-2 5_SL6 RNA = test system: SARS-CoV-2 5_SL6 RNA

Row | Structure (SMILES) | NMR binding call (SARS-CoV-2 5'-UTR RNA) | NMR binding call (SARS-CoV-2 5_SL1 RNA) | NMR binding call (SARS-CoV-2 5_SL1234 RNA) | NMR binding call (SARS-CoV-2 5_SL2+3 RNA) | NMR binding call (SARS-CoV-2 5_SL4 RNA) | NMR binding call (SARS-CoV-2 5_SL5 RNA) | NMR binding call (SARS-CoV-2 5_SL5a RNA) | NMR binding call (SARS-CoV-2 5_SL5b+c RNA) | NMR binding call (SARS-CoV-2 5_SL5stem RNA) | NMR binding call (SARS-CoV-2 5_SL6 RNA)
1 | CS(=O)(=O)NCC1CCNCC1 | 0 | 0 | 0 | 0 | 0 | 0 | 0 | 0 | 0 | 0
2 | CS(=O)(=O)N1CCCC1CN (stereo not given) | 0 | 0 | 0 | 0 | 0 | 0 | 0 | 0 | 0 | 0
3 | CCC(=O)NCc1nnc2n1CCCC2 | 0 | 0 | 0 | 0 | 0 | 0 | 0 | 0 | 0 | 0
4 | CC(=O)Nc1cc(C(=O)O)ccc1F | 0 | 0 | 0 | 0 | 0 | 0 | 0 | 0 | 0 | 0
5 | CC(=O)Nc1ccc(NC(=O)CC(C)C)cc1 | 0 | 0 | 0 | 0 | 0 | 0 | 0 | 0 | 0 | 0
6 | Cc1ccc(CN2CCS(=O)(=O)CC2)cc1 | 0 | 0 | 0 | 0 | 0 | 0 | 0 | 0 | 0 | 0
7 | CNS(=O)(=O)Cc1cc(C)on1 | 0 | 0 | 0 | 0 | 0 | 0 | 0 | 0 | 0 | 0
8 | CN(c1ccc(C(N)=O)nn1)C1CCC1 | 0 | 0 | 0 | 0 | 0 | 0 | 0 | 0 | 0 | 0
9 | COc1cccc2c1CCCC(=O)N2 | 0 | 0 | 0 | 0 | 0 | 0 | 0 | 0 | 0 | 0
10 | CCc1nc(C2CCCN2)no1 (stereo not given) | 0 | 0 | 0 | 0 | 0 | 0 | 0 | 0 | 0 | 0
11 | CC(=O)NCc1cncs1 | 0 | 0 | 0 | 0 | 0 | 0 | 0 | 0 | 0 | 0
12 | Oc1ccc(CN2CCOCC2)c2cccnc12 | 0 | 0 | 0 | 0 | 0 | 0 | 0 | 0 | 0 | 0
13 | CN1CCN(C(=O)Nc2ccccc2)CC1 | 0 | 0 | 0 | 0 | 0 | 0 | 0 | 0 | 0 | 0
14 | O=C(Nc1nccs1)C1CC1c1ccccc1 (stereo not given) | 0 | 0 | 0 | 0 | 0 | 0 | 0 | 0 | 0 | 0
15 | O=C(COC(F)F)N1CCCC2(CC2)C1 | 0 | 0 | 0 | 0 | 0 | 0 | 0 | 0 | 0 | 0
16 | Cc1ccc(CN(C)Cc2ccccc2)o1 | 0 | 0 | 0 | 0 | 0 | 0 | 0 | 0 | 0 | 0
17 | c1cc(-c2noc(C3CCCCC3)n2)ccn1 | 0 | 0 | 0 | 0 | 0 | 0 | 0 | 0 | 0 | 0
18 | CCC(=O)NC1CCNC1 (stereo not given) | 0 | 0 | 0 | 0 | 0 | 0 | 0 | 0 | 0 | 0
19 | OC1CCN(Cc2ccc(Cl)cc2)C1 (stereo not given) | 0 | 0 | 0 | 0 | 0 | 0 | 0 | 0 | 0 | 0
20 | COc1ccc(NC(=O)CN)cc1 | 1 | 0 | 0 | 0 | 0 | 0 | 0 | 0 | 0 | 0
21 | COc1ccc(CNC(=O)c2cnccn2)cc1 | 0 | 0 | 0 | 0 | 0 | 0 | 0 | 0 | 0 | 0
22 | CNc1ncc(C(F)(F)F)cc1Cl | 0 | 0 | 0 | 0 | 0 | 0 | 0 | 0 | 0 | 0
23 | CC(=O)NCC1(O)CCCC1 | 0 | 0 | 0 | 0 | 0 | 0 | 0 | 0 | 0 | 0
24 | O=C(Nc1nnc(-c2ccco2)s1)C1CC1 | 0 | 0 | 0 | 0 | 0 | 0 | 0 | 0 | 0 | 0
25 | COC(=O)Nc1nc2c(C)cccc2s1 | 0 | 0 | 0 | 0 | 0 | 0 | 0 | 0 | 0 | 0
26 | Cl.NC1CCCN(C(=O)CCC(F)(F)F)C1 (stereo not given) | 0 | 0 | 0 | 0 | 0 | 0 | 0 | 0 | 0 | 0
27 | CNCC1COc2ccccc2O1 (stereo not given) | 0 | 0 | 0 | 0 | 0 | 0 | 0 | 0 | 0 | 0

Row | Structure (SMILES) | NMR binding call (SARS-CoV-2 5'-UTR RNA) | NMR binding call (SARS-CoV-2 5_SL1 RNA) | NMR binding call (SARS-CoV-2 5_SL1234 RNA) | NMR binding call (SARS-CoV-2 5_SL2+3 RNA) | NMR binding call (SARS-CoV-2 5_SL4 RNA) | NMR binding call (SARS-CoV-2 5_SL5 RNA) | NMR binding call (SARS-CoV-2 5_SL5a RNA) | NMR binding call (SARS-CoV-2 5_SL5b+c RNA) | NMR binding call (SARS-CoV-2 5_SL5stem RNA) | NMR binding call (SARS-CoV-2 5_SL6 RNA)
28 | COCc1nnc(N)s1 | 0 | 0 | 0 | 0 | 0 | 0 | 0 | 0 | 0 | 0
29 | O=C(Nc1nc2ccccc2[nH]1)C1CCCCC1 | 0 | 0 | 0 | 0 | 0 | 0 | 0 | 0 | 0 | 0
30 | CC(=O)N(C)c1cccnc1 | 0 | 0 | 0 | 0 | 0 | 0 | 0 | 0 | 0 | 0
31 | CC1CN(S(=O)(=O)N(C)C(C)C)CCO1 (stereo not given) | 0 | 0 | 0 | 0 | 0 | 0 | 0 | 0 | 0 | 0
32 | CS(=O)(=O)NC1(C(=O)O)CCCCC1 | 0 | 0 | 0 | 0 | 0 | 0 | 0 | 0 | 0 | 0
33 | O=C(Cc1ccc(Cl)cc1)Nc1ncccn1 | 0 | 0 | 0 | 0 | 0 | 0 | 0 | 0 | 0 | 0
34 | CN(C(=O)C1CC1(C)C)c1cccnc1 (stereo not given) | 0 | 0 | 0 | 0 | 0 | 0 | 0 | 0 | 0 | 0
35 | CNC1(C(N)=O)CCCC1 | 0 | 0 | 0 | 0 | 0 | 0 | 0 | 0 | 0 | 0
36 | c1nc(CN2CCNCC2)cs1 | 0 | 0 | 0 | 0 | 0 | 0 | 0 | 0 | 0 | 0
37 | Cc1[nH][nH]c(=O)c1CCO | 0 | 0 | 0 | 0 | 0 | 0 | 0 | 0 | 0 | 0
38 | CCc1cc(=O)n2nc(NC)sc2n1 | 0 | 0 | 0 | 0 | 0 | 0 | 0 | 0 | 0 | 0
39 | CNCc1cccc(OC)n1 | 0 | 0 | 0 | 0 | 0 | 0 | 0 | 0 | 0 | 0
40 | Cc1ccc(C(=O)Nc2nnc[nH]2)cc1C | 0 | 0 | 0 | 0 | 0 | 0 | 0 | 0 | 0 | 0
41 | COCC(=O)Nc1ccc(O)cc1 | 0 | 0 | 0 | 0 | 0 | 0 | 0 | 0 | 0 | 0
42 | CC(=O)NC1CCC(N)CC1 (stereo not given) | 0 | 0 | 0 | 0 | 0 | 0 | 0 | 0 | 0 | 0
43 | N#CCCN1CCOCC1 | 0 | 0 | 0 | 0 | 0 | 0 | 0 | 0 | 0 | 0
44 | CCCn1c(NC(=O)CC)nc2ccccc21 | 0 | 0 | 0 | 0 | 0 | 0 | 0 | 0 | 0 | 0
45 | NC(=O)C1CCN(CCc2ccccc2)CC1 | 0 | 0 | 0 | 0 | 0 | 0 | 0 | 0 | 0 | 0
46 | Cc1ccccc1CC(N)=O | 0 | 0 | 0 | 0 | 0 | 0 | 0 | 0 | 0 | 0
47 | COc1ccc(N2CC(C(N)=O)CC2=O)cc1 (stereo not given) | 0 | 0 | 0 | 0 | 0 | 0 | 0 | 0 | 0 | 0
48 | CC1CC1C(=O)NCCc1ccc(Cl)cc1 (stereo not given) | 0 | 0 | 0 | 0 | 0 | 0 | 0 | 0 | 0 | 0
49 | CCc1nnc(NC(=O)C(F)(F)F)s1 | 0 | 0 | 0 | 0 | 0 | 0 | 0 | 0 | 0 | 0
50 | Nc1cc(C(F)(F)F)ccc1N1CCCCC1 | 0 | 0 | 0 | 0 | 0 | 0 | 0 | 0 | 0 | 0
51 | N#Cc1ccc(N2CCNCC2)c(F)c1 | 0 | 0 | 0 | 0 | 0 | 0 | 0 | 0 | 0 | 0
52 | Cn1ccc(C(=O)NCC2CCCO2)n1 (stereo not given) | 0 | 0 | 0 | 0 | 0 | 0 | 0 | 0 | 0 | 0
53 | CC(=O)NC(C(=O)O)C1CCOCC1 (stereo not given) | 0 | 0 | 0 | 0 | 0 | 0 | 0 | 0 | 0 | 0

Structural class, those above with fluorine.
Row | Structure (SMILES) | NMR binding call (SARS-CoV-2 5'-UTR RNA) | NMR binding call (SARS-CoV-2 5_SL1 RNA) | NMR binding call (SARS-CoV-2 5_SL1234 RNA) | NMR binding call (SARS-CoV-2 5_SL2+3 RNA) | NMR binding call (SARS-CoV-2 5_SL4 RNA) | NMR binding call (SARS-CoV-2 5_SL5 RNA) | NMR binding call (SARS-CoV-2 5_SL5a RNA) | NMR binding call (SARS-CoV-2 5_SL5b+c RNA) | NMR binding call (SARS-CoV-2 5_SL5stem RNA) | NMR binding call (SARS-CoV-2 5_SL6 RNA)
4 | CC(=O)Nc1cc(C(=O)O)ccc1F | 0 | 0 | 0 | 0 | 0 | 0 | 0 | 0 | 0 | 0
15 | O=C(COC(F)F)N1CCCC2(CC2)C1 | 0 | 0 | 0 | 0 | 0 | 0 | 0 | 0 | 0 | 0
22 | CNc1ncc(C(F)(F)F)cc1Cl | 0 | 0 | 0 | 0 | 0 | 0 | 0 | 0 | 0 | 0
26 | Cl.NC1CCCN(C(=O)CCC(F)(F)F)C1 (stereo not given) | 0 | 0 | 0 | 0 | 0 | 0 | 0 | 0 | 0 | 0
49 | CCc1nnc(NC(=O)C(F)(F)F)s1 | 0 | 0 | 0 | 0 | 0 | 0 | 0 | 0 | 0 | 0
50 | Nc1cc(C(F)(F)F)ccc1N1CCCCC1 | 0 | 0 | 0 | 0 | 0 | 0 | 0 | 0 | 0 | 0
51 | N#Cc1ccc(N2CCNCC2)c(F)c1 | 0 | 0 | 0 | 0 | 0 | 0 | 0 | 0 | 0 | 0
